PubChem BioAssay AID1259424 – University of Nebraska Medical Center – 2018
This is a random part of about 14,000 deposited reagents. 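Higher correlation or smaller distance means closer resemblance to KSR1 loss; control wells, including KSR1 knockdowns, recur on many plates.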 Some reagents were tested in more than one well and are listed for each. Further read-outs or replicates are left out here. No sequences are given here. Not given: the time to read-out.

Screen: 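Rank knockdowns across the genome by resemblance to the KSR1 depletion profile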 (primary screen)
Cell system: human HCT116 colon cancer cells
Knock-down reagent: siRNA pool against human genes, 50 nM
Measured: 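Log2 levels of six mRNAs (branched-DNA multiplex), adjusted by two reference genes and the non-targeting median, then scored against the average KSR1 knockdown pattern as Pearson r and euclidean distance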
Scale: mean correlation with KSR1 profile: higher = expression change more like KSR1 knockdown; mean distance from KSR1 profile: higher = expression change less like KSR1 knockdown

target,mean correlation with KSR1 profile,mean distance from KSR1 profile
RTL6,0.963,1.56
GPR101,0.76,1.73
HTR3A,0.449,2.02
RPL37A,-0.486,3.05
FBXO25,-0.403,1.33
PLPP2,0.224,2.83
QARS1,0.00883,2.92
ZNF267,-0.0783,2.02
CA9,-0.398,3.23
LOXL1,0.256,3.81
ZNF165,-0.0302,1.41
LITAF,-0.362,2.19
CALCRL,0.291,1.66
GOLGA8A,-0.55,3.22
H2BC12,0.548,1.58
GRIK3,-0.702,1.69
TTLL1,0.076,2.04
NWD2,-0.0563,3.95
GIPR,0.706,1.34
HTR1B,0.2,2.53
NKX2-2,-0.219,3.75
PLK3,0.111,1.57
PPIL1,-0.274,2.5
PLXNB2,-0.279,3.16
IREB2,-0.166,1.76
DOT1L,0.382,1.67
RASSF8,-0.408,3.46
APLN,0.0924,1.42
PTPN23,-0.27,3.97
SSC4D,0.116,2.57
UTP6,-0.344,1.03
EDN2,-0.499,4.15
RPAIN,0.471,1.89
C1QC,-0.169,2.22
PPP5C,-0.12,2.72
ZBTB4,0.161,2.24
COL4A3,0.0332,1.6
SCNN1D,0.213,1.56
STK3,0.38,2.14
C1orf116,-0.726,2.17
C1orf116,-0.00542,3.24
RDX,0.194,1.62
ZNF12,-0.0669,3.21
HGD,0.257,2.07
RRAGB,-0.395,2.53
CLU,-0.492,2.75
PAFAH1B2,0.185,3.19
OR1J4,-0.574,2.09
NUTF2,-0.523,2.08
S100A5,-0.438,3.03

No new results follow: entries from further up.
target,mean correlation with KSR1 profile,mean distance from KSR1 profile
SSC4D,0.116,2.57
UTP6,-0.344,1.03
EDN2,-0.499,4.15
RPAIN,0.471,1.89
C1QC,-0.169,2.22
PPP5C,-0.12,2.72
ZBTB4,0.161,2.24
COL4A3,0.0332,1.6
